Measured values published in patent US7361741.
Results are given in words; binding and its absence hold for the method and conditions named. Some binding calls cover weakened binding; strength is not graded here.

Biological target: T1, carboxy terminal domain of Human Pancreatic Lipase (human) (UniProt P16233)
T1 sequence (biotinylated for selection, looked up): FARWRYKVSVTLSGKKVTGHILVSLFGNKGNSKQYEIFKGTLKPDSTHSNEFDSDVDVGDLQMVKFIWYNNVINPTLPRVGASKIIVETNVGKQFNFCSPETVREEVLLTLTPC
Test: phage display selection in solution with the biotinylated carboxy terminal domain of HPL, capture on streptavidin beads

- binding: binds
B1: HPL#22 (VHH)
VHH: QVQLQESGGGLVQAGGSLRLSCAASGSIRSISIMTWYRQAPGKERELVARMSSDGTTSYTDSMKGRFTISRDNAKNTVYLHMNNLKPEDTAVYYCKALISSYDGSWNDYGGQGTQVTVSS
